Data: article PMC4889327
Results are given in words; binding and its absence hold for the method and conditions named. Binding seen in cells or lysates may run through a third protein. A yes stands for co-enrichment or nearness to the bait. Other partners may have been found. Tags and fused reporters may be left off the sequences shown.

Sequences of proteins named here, by UniProt entry; tags and fusion partners are left off. A change or cut given only in a name is not applied to a line headed by its entry.
UniProt P61088: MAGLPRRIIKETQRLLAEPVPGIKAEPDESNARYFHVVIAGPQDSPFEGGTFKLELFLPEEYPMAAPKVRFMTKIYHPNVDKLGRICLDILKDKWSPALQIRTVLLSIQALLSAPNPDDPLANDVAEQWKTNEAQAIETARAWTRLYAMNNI
UniProt P27449: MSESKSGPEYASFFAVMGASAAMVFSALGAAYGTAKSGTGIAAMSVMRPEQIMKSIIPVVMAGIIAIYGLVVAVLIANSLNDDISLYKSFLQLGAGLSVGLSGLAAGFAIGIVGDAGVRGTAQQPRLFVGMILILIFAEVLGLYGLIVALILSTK
UniProt Q9Y2Q5: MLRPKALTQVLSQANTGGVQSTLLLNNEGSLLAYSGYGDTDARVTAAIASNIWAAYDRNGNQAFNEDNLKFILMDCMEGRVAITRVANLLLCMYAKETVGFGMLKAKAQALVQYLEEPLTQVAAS
UniProt Q9UHA4: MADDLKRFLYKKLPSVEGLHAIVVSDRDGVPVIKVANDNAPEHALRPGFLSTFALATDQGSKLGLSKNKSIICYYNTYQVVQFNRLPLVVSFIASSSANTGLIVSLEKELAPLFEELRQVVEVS
UniProt Q93050: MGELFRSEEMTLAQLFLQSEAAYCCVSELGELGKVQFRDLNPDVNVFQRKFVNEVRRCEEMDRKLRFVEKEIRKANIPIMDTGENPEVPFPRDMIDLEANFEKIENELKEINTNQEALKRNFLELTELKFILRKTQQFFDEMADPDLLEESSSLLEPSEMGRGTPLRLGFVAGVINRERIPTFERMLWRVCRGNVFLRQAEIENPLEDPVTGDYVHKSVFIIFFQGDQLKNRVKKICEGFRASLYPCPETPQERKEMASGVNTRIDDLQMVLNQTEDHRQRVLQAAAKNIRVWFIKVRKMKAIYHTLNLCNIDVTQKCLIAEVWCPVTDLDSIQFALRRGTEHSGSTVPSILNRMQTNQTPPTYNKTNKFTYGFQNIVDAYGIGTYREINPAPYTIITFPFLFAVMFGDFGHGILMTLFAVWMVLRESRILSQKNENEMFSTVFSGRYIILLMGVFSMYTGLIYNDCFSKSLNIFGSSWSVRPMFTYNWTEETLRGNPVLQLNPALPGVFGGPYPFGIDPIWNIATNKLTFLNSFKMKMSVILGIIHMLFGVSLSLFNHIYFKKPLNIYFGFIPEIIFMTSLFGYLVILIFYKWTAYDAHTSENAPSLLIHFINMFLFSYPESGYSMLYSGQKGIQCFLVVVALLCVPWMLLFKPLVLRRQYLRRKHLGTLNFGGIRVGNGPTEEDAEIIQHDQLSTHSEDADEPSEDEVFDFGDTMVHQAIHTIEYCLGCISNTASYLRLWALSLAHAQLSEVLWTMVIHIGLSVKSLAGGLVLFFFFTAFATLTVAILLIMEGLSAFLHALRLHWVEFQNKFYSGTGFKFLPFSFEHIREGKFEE
UniProt P61421: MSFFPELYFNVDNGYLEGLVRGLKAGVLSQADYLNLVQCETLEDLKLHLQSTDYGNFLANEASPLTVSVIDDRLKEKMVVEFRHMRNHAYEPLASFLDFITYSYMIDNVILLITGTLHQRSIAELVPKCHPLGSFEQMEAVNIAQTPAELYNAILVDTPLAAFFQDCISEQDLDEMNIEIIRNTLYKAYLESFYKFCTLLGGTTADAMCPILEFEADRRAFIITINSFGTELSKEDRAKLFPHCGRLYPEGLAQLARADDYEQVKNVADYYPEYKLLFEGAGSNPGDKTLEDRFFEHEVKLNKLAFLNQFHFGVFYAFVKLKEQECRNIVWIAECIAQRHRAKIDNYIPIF

Legend:
[1] = molecular target: T1, GFP-ZNRF2 (N-terminal tag, non-myristoylated) (human) (UniProt Q8NHG8); assay: affinity purification with mass spectrometry; GFP-Trap immunoprecipitation from 200 mg clarified Triton X-100 lysate of HEK293 Flp-In T-Rex cells stably expressing GFP, GFP-ZNRF2 or ZNRF2-GFP (tetracycline 36 hr), 2 hr at 4°C; SDS-PAGE, gel slices, trypsin, mass spectrometric fingerprinting
T1 sequence: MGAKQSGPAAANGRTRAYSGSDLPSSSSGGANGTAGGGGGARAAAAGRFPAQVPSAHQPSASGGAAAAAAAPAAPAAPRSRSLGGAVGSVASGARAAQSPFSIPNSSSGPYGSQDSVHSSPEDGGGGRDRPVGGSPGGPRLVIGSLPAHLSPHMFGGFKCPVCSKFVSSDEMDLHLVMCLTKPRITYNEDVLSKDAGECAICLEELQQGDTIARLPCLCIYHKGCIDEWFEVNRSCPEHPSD

[2] = molecular target: T2, ZNRF2-GFP (C-terminal tag, myristoylated) (human) (UniProt Q8NHG8); assay: as above
T2 sequence (chain, N-myristoyl moiety at the N-terminus): T1 sequence

Substance | binding [1] | binding [2]
E2 conjugating enzyme UBE2N/UBC13 (from UniProt P61088 1-152) | binds | binds
V0C subunit of the V-ATPase (from UniProt P27449 1-155) | – | binds
V1E subunit of the V-ATPase (human (endogenous in HEK293)) | – | binds
p14 subunit of Ragulator (from UniProt Q9Y2Q5 1-125) | – | binds

The next lines start with the values.

binding [1] | binding [2] | Substance
– | binds | Mp1 subunit of Ragulator (from UniProt Q9UHA4 1-124)
– | binds | V0A1 component of the V-ATPase (from UniProt Q93050 1-837)
– | binds | V0D1 subunit of the V-ATPase (from UniProt P61421 1-351)
